Here are results for 10 molecules from patent US20060270837A1 (published 2006).

Chains of the proteins cited; added tags and fusions are not shown. Lines headed by an entry give the natural chain unless they say otherwise; changes in a name come on top.
UniProt O00220: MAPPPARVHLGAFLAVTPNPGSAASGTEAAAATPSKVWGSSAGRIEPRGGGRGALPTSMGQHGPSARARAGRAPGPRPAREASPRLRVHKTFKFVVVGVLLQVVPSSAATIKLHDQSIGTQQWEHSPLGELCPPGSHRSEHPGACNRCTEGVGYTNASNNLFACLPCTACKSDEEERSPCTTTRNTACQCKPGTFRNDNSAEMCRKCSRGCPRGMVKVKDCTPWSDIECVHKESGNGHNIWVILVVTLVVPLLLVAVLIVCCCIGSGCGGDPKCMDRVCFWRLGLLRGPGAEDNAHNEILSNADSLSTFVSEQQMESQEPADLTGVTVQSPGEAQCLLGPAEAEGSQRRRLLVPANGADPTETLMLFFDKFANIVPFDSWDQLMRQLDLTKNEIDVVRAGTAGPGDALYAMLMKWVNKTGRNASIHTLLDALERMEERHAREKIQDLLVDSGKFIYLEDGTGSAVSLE

Assay [1] concerns the target TR4 polypeptide (human) (UniProt O00220). Put plainly: phage display selection of scFvs on TR4.
The target is the same in assay [2]. The experiment in a line: statement in Example 8; assay not named.

Substitutions are numbered along the chain they refer to. These are yes or no findings as the source states them, for the method shown. Some results given as binding are weak or reduced against the parent protein; the word gives no strength.

B1: scFv T1014A12 (scFv)
scFv: EVQLVQSGADVKRPGASVKVSCKISGDSFTAYFIHWVRQAPGQGLEWMGWFNPDSGTADSAQKFHGRVTMTRDTSSSTAFLELSRLRSDDTAVYYCVRQHRGNTFAPWGRGTMVTVSSGGGGSGGGGSGGGGSAQSALTQPASVSGPPGQSITISCTGSSSDVGGYKYVSWYQQHPGKAPKLIIHDVSRRPSEVSSRFSGSKSGNTASLTISGLQAEDEAEYYCSSYSSTNSWVFGGGTKVTVLG
Regarding B1, the binding entry with TR4 polypeptide (human) [1] is reported as “binds”.

B2: scFv T1014G03 (scFv)
scFv: EVQLVQSGAEVKMPGASVKLSCRVSGDTFTAYFIHWVRQAPGQGLEWMGWFNPISGTAGSAEKFRGRVAMTRDTSISTAYMELNRLTFDDTAVYYCARQHRGNTFDPWGQGTLVTVSSGGGGSGGGGSGGGGSAQSALTQPASVSGSPGQSITISCTGTSSDIGAYKYVSWYQQHPGKAPKLVIYEVSNRPSGVSSRFSGSKSGQTASLTISGLQADDEADYYCNSYQGYNTWVFGGGTKVTVLG
Regarding B2, the binding entry in the assay with TR4 polypeptide (human) [1] is listed as “binds”.

B3: IgG1 antibody comprising the VH and VL domains of the T1014F08 scFv (antibody, V domains shown)
VH: EVQLVQSGAEVKKPGASVKLSCRVSGDTFTAYFIHWVRQAPGQGPEWMGWFNPISGTAGSAARFRGRVAMTRDTSISTAYMELNRLTFDDTAVYYCARQHRGNTFDPWGKGTLVTVSS
VL: LPVLTQPPSASGSPGQSVTISCTGTSSDVGGYKYVSWYQQHPGKAPKLMIYEVSMRPSGVPDRFSGSKSGNTASLTVSGLQAEDEADYYCASYAGSNNWVFGGGTKLTVLG
Turning to B3, in the assay with TR4 polypeptide (human) [2], the binding result was “binds”.

B4: scFv T1014F08 (scFv)
scFv: EVQLVQSGAEVKKPGASVKLSCRVSGDTFTAYFIHWVRQAPGQGPEWMGWFNPISGTAGSAARFRGRVAMTRDTSISTAYMELNRLTFDDTAVYYCARQHRGNTFDPWGKGTLVTVSSGGGGSGGGGSGGGGSALPVLTQPPSASGSPGQSVTISCTGTSSDVGGYKYVSWYQQHPGKAPKLMIYEVSMRPSGVPDRFSGSKSGNTASLTVSGLQAEDEADYYCASYAGSNNWVFGGGTKLTVLG
B4: the binding result with TR4 polypeptide (human) [1] is reported as “binds”.

B5: scFv T1014B01 (scFv)
scFv: QVQLVQSGAEVKKPGASVKVSCKISGDTFAAYFIHWVRQAPGQGLEWMGWFNPNSGTADSSQKFHGRVTMTRDTSISTAYMELSRLRSDDTAVYYCARQHRSNTFDPWGQGTMVTVSSGGGGSGGGGSGGGGSAQSVVTQPPSVSGSPGQSVTISCTGTSSDIGAYNYVSWFQQHPGKAPKLIISEVSKRPSGVPDRLSGSKSGNTASLTVSGLQAEDEADYYCGSYAGSNIWVFGGGTKVTVLG
For B5, the binding entry with TR4 polypeptide (human) [1] is listed as “binds”.

B6: scFv T1014A04 (scFv)
scFv: EVQLVQSGADVKRPGASVKVSCKISGDSFNAYFIHWVRQAPGQGLEWMGWFNPDSGTADSAQKFHGRVTMTRDTSSSTAFLELSRLRSDDTAVYYCVRQHRGNTFAPWGRGTMVTVSSGGGGSGGGGSGGGGSAQSVLTQPPSASGSPGQSVTISCTGTTSDVGGYNYVSWYQQHPGKAPKLMIYGVNQRPSGVPDRFSGSKSGNTASLTVSGLQAEDEADYYCSSYAGSNNWVFGGGTKLTVLG
For B6, the binding result with TR4 polypeptide (human) [1] was “binds”.

B7: scFv T1015A07 (scFv)
scFv: EVQLVQSGAEVKKPGASVKVSCKISGDSFTAYFIHWLRQAPGEGLEWMGWFNPISGTADSPQKFHGRVAMTRDTSISTAYMELTRLASDDTAIYYCARQHHSNTFDPWGQGTLVTVSSGGGGSGGGGSGGGGSAQSALTQPASMSGSPGQSITISCTGTSSDVGGYNYVSWYQQHPGKAPKLMIYAVTNRPSGVSNRFSASKSGNTASLTISGLQAEDEADYYCSSYTSSNTWVFGGGTKVTVLG
Take B7: the binding entry in the assay with TR4 polypeptide (human) [1] is listed as “binds”.

B8: scFv T1014B11 (scFv)
scFv: B7 scFv with D59G, M144V, S160N, A186E, T188N, A200G, E217D, S229T, V241L
For B8, the binding result with TR4 polypeptide (human) [1] was “binds”.

B9: scFv T1014G04 (scFv)
scFv: EVQLVQSGADVKRPGASVKVSCKISGDSFTAYFIHWVRQAPGQGLEWMGWFNPDSGTADSAQKFHGRVTMTRDTSSSTAFLELSRLRSDDTAVYYCVRQHRGNTFAPWGRGTLVTVSSGGGGSGGGGSGGGGSAQPVLTQPPSASGSPGQSVTISCTGTSSDVGSYEYVSWYQQHPGKAPRLMISEVNKRPSGVPNRFSGSKSGNTASLTVSGLQADDEADYYCSSYAGSNNWVFGGGTKVTVLG
On to B9, for which the binding result with TR4 polypeptide (human) [1] is recorded as “binds”.

B10: scFv T1014A02 (scFv)
scFv: QVQLQESGPGLVKPSETLSLTCTVSGGSISDYYWSWVRQSPGKGLEWIGSIDYAGSTNYNPSLKSRVTMTIDKSKKQFPLKIDSVTAADTAMYYCARQLGRISDYWGQGTLVTVSSGGGGSGGGGSGGGGSALSYVLTQPPSASGTPGQRVTISCAGSSSNIGGNTVNWYQQLPATAPKLLIYSNNQRPSGVPDRFSGSKSGTSASLAISGLQSEDEADYYCATWDDSRGGWVFGGGTKLTVLG
On to B10, for which the binding entry with TR4 polypeptide (human) [1] is on record as “binds”.
